# Measurements taken from publication PMC7819943, “Rice protein-binding microarrays: a tool to detect cis-acting elements near promoter regions in rice”.
# Chains of the proteins cited; added tags and fusions are not shown.
# UniProt Q0JBA9, entry or part of it: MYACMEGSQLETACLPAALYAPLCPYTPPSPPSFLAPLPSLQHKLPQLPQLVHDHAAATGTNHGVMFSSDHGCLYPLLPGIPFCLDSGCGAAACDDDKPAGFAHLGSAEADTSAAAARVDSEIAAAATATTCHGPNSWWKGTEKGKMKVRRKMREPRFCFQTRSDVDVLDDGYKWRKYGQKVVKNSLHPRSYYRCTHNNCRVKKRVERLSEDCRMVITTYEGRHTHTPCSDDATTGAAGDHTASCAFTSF
# This is one part of the list.
# Target: OsWRKY34 (Oryza sativa, UniProt Q0JBA9 1-250)
# Assay: protein-binding microarray (RPBM); PBS, 2% BSA, 51.3 ng/ul salmon testes DNA, 50 uM zinc acetate, 200 nM TF, 25 C, 1 h; high values mean tight binding
# Conditions: protein: recombinant; tags: N-terminal polyhistidine and DsRed monomer fusion (pET32a); label: CyDye5-dUTP incorporated in the synthesized complementary strand; 3' TTTTT single-stranded linker to array surface; dsDNA, one strand shown
# Procedure, shortened: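 Polyhistidine-tagged DsRed fusions of transcription factors, joined at the N-terminus, were expressed in E. coli BL21-CodonPlus and isolated on Ni–NTA. They were incubated at 200 nM for 1 h at 25 °C on a custom Agilent array, double-stranded and BSA-blocked, in PBS with 2% BSA, salmon testes DNA and 50 µM zinc acetate. The binding signal is per-feature fluorescence intensity (arbitrary units) read on an Axon 4000B scanner after washing.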
row,Sequence,binding signal
1,GGCCGGCGACGCTGAACGGGGTGGGGTAGTCTGCTATTTACGGAGTCACCTAGTGCAG,18000 fluorescence intensity (a.u.)
2,ATTTCGCCTGCTTATGGGTTGTGGGCGCTTGTGCACATATCGGAGTCACCTAGTGCAG,13300 fluorescence intensity (a.u.)
3,GCGATACGACTTGATTCGGCCTCTCTCTCTCCGCGCGCGCCGGAGTCACCTAGTGCAG,11400 fluorescence intensity (a.u.)
4,ATGGCCAACCGATGGGATCCATTCTACTTCTACACATATGCGGAGTCACCTAGTGCAG,9430 fluorescence intensity (a.u.)
5,CATTTGTGGTTTGTACATATTTATATAAGTTATTATAAATCGGAGTCACCTAGTGCAG,9060 fluorescence intensity (a.u.)
6,CTACTATCAATCAATCGACTCGTTTTTCATATTGCTTTTACGGAGTCACCTAGTGCAG,10500 fluorescence intensity (a.u.)
7,ACAGAATGCTAAATTTCATCATCTTTCGGTGCTATTATTACGGAGTCACCTAGTGCAG,8060 fluorescence intensity (a.u.)
8,TCGTTCGTTTCCATTTTTCCTCGTCCGCTCGCTCTCGTTCCGGAGTCACCTAGTGCAG,10200 fluorescence intensity (a.u.)
9,GTGGACTTTTTTCCTTCTCCTTTTCCTTTGTGTTGTTTCGCGGAGTCACCTAGTGCAG,8860 fluorescence intensity (a.u.)
10,TCGGTTAGTGTACTGTTCAAAGATTACTAAGCTTTGCCTTCGGAGTCACCTAGTGCAG,8560 fluorescence intensity (a.u.)
11,TCGTCTCATTTCTGTATTTGCAGTCGAGAAATCTTCTTCTCGGAGTCACCTAGTGCAG,10900 fluorescence intensity (a.u.)
12,TGTTGATTTTTTAAAATATGTTTGACCGTTCGTCTTATTCCGGAGTCACCTAGTGCAG,10700 fluorescence intensity (a.u.)
13,CATAATCGTCATTTCGGTTTGCTTTGTCCTAATGTTTTCCCGGAGTCACCTAGTGCAG,8880 fluorescence intensity (a.u.)
14,ATATTTGACACCGTTGATTTTTTAGCGCATGTCTGAACGTCGGAGTCACCTAGTGCAG,9530 fluorescence intensity (a.u.)
15,GCTGGTGCAGGCTTCTACCTTCTCTTCTCTCTATCAACACCGGAGTCACCTAGTGCAG,11300 fluorescence intensity (a.u.)
16,TTCTTGAATGATTTGCTAATTGCTACATGTATCCTCTTTCCGGAGTCACCTAGTGCAG,9090 fluorescence intensity (a.u.)
17,AATAAGACGAACGGTCAAACATGTTTTCAAAAGTCAACGGCGGAGTCACCTAGTGCAG,11100 fluorescence intensity (a.u.)
18,AGGGGAGTTGATTACAGGGAGTTACAGGGTTCCAAGCTTTCGGAGTCACCTAGTGCAG,9460 fluorescence intensity (a.u.)
19,AGGCTCTATTGGTTTCTCCTCTGTACATACAGTAGTAGTCCGGAGTCACCTAGTGCAG,8640 fluorescence intensity (a.u.)
20,TGGTTCTTCAAGATCTGTTGCTCCTATCAAGGCTGGATTCCGGAGTCACCTAGTGCAG,8920 fluorescence intensity (a.u.)
21,CAACAGTTAGCATTATATATTCGGTTCTACTAACTTGTCTCGGAGTCACCTAGTGCAG,9060 fluorescence intensity (a.u.)

# A second format for some results above:
row	Sequence	binding signal
12	TGTTGATTTTTTAAAATATGTTTGACCGTTCGTCTTATTCCGGAGTCACCTAGTGCAG	10700 fluorescence intensity (a.u.)
13	CATAATCGTCATTTCGGTTTGCTTTGTCCTAATGTTTTCCCGGAGTCACCTAGTGCAG	8880 fluorescence intensity (a.u.)
14	ATATTTGACACCGTTGATTTTTTAGCGCATGTCTGAACGTCGGAGTCACCTAGTGCAG	9530 fluorescence intensity (a.u.)
15	GCTGGTGCAGGCTTCTACCTTCTCTTCTCTCTATCAACACCGGAGTCACCTAGTGCAG	11300 fluorescence intensity (a.u.)
16	TTCTTGAATGATTTGCTAATTGCTACATGTATCCTCTTTCCGGAGTCACCTAGTGCAG	9090 fluorescence intensity (a.u.)
17	AATAAGACGAACGGTCAAACATGTTTTCAAAAGTCAACGGCGGAGTCACCTAGTGCAG	11100 fluorescence intensity (a.u.)
18	AGGGGAGTTGATTACAGGGAGTTACAGGGTTCCAAGCTTTCGGAGTCACCTAGTGCAG	9460 fluorescence intensity (a.u.)
19	AGGCTCTATTGGTTTCTCCTCTGTACATACAGTAGTAGTCCGGAGTCACCTAGTGCAG	8640 fluorescence intensity (a.u.)
20	TGGTTCTTCAAGATCTGTTGCTCCTATCAAGGCTGGATTCCGGAGTCACCTAGTGCAG	8920 fluorescence intensity (a.u.)
21	CAACAGTTAGCATTATATATTCGGTTCTACTAACTTGTCTCGGAGTCACCTAGTGCAG	9060 fluorescence intensity (a.u.)

# (list continues)

row,Sequence,binding signal
1,CCTTCCCGCGCCGCCCACCCGGCCACCCTCCGCTCCATCCCGGAGTCACCTAGTGCAG,9680 fluorescence intensity (a.u.)
2,TTTTTTTCAGGGAAAAAATGCTGTGACCATTTGTTCGTTTCGGAGTCACCTAGTGCAG,8100 fluorescence intensity (a.u.)
3,ATTCTATTATCCCATCCGTCTCAAATACTACTTGATGTATCGGAGTCACCTAGTGCAG,10100 fluorescence intensity (a.u.)
4,TCTCGTTTCCAATGTCCTTTTTTTCAACTACATTTCCAATCGGAGTCACCTAGTGCAG,10600 fluorescence intensity (a.u.)
5,CGAATCACAAAGCGAGGCCCACTTCCACCTTTTCCTATTTCGGAGTCACCTAGTGCAG,9290 fluorescence intensity (a.u.)
6,ATGATGTAGTGGGCTTTTTAATGGTGTTTTTTTGCCTATTCGGAGTCACCTAGTGCAG,10200 fluorescence intensity (a.u.)
7,TGCACATTTTTCTTCCTTTATTTTCGTGTGGAGTATATTTCGGAGTCACCTAGTGCAG,10700 fluorescence intensity (a.u.)
8,TCATTGCCATCACATTGTAGATCTTCAATTGCGTACTTGTCGGAGTCACCTAGTGCAG,8470 fluorescence intensity (a.u.)
9,TGCACATCACCGATCACATTTGTTTTTTAAAGACGTCCCTCGGAGTCACCTAGTGCAG,8810 fluorescence intensity (a.u.)
10,TGGCTACACAGGCTACTCATCCTTTTTCAGTTTTTCAAACCGGAGTCACCTAGTGCAG,8390 fluorescence intensity (a.u.)
11,TTCTCACTGGCCCAGCACAAGTGGGTTTAATTTGTTGTCCCGGAGTCACCTAGTGCAG,8740 fluorescence intensity (a.u.)
12,AGTATTGCAAGTGTAGTTCTACCTCTATCGTGACCTCAATCGGAGTCACCTAGTGCAG,9970 fluorescence intensity (a.u.)
13,TAGCTCGTCTCGTCTCTTCTCTACCCCAATCCCGTTCTCTCGGAGTCACCTAGTGCAG,11000 fluorescence intensity (a.u.)
14,ACTCTCTCTCTCTCTCTCTCTCTCTCTCTCTCTCCAATCTCGGAGTCACCTAGTGCAG,9700 fluorescence intensity (a.u.)
15,TTTTCAAAATCGCGCATCCACCGCCGCTCGACCAAAAAAACGGAGTCACCTAGTGCAG,8870 fluorescence intensity (a.u.)
16,ACTACCTCAACCTGCAATCCCACTGCAACATCTACCTGCTCGGAGTCACCTAGTGCAG,8260 fluorescence intensity (a.u.)
17,CCCGATCTCCTCTCGCCGTCGGCGTCGCCCGGGTCGCCGCCGGAGTCACCTAGTGCAG,10000 fluorescence intensity (a.u.)
18,TCTGTCGTCGCCGCGCCGGCCCTCACTGGAGATCGCCTCTCGGAGTCACCTAGTGCAG,9280 fluorescence intensity (a.u.)
19,ATCACTCTTCTTGGTCGTTCTTGCCATTCTTGTACCGCGACGGAGTCACCTAGTGCAG,18200 fluorescence intensity (a.u.)
20,TGTGTACTATTTTTTCTACCGTTGGATACAAATATGAGGGCGGAGTCACCTAGTGCAG,8510 fluorescence intensity (a.u.)
21,TTCTTTCTTCTCCTCCTGGATTTCTGCCGGCTCGAGATCTCGGAGTCACCTAGTGCAG,11400 fluorescence intensity (a.u.)
